These are yes or no findings as the source states them, for the method shown. Binding seen in cells or lysates may run through a third protein. Some entries that bind do so weakly or less than the wild type. Where a sequence is shown, tags or fusion partners need not be part of it.
Molecular target: T1, FLAG-SREBP2Nterm (SREBP2 N-terminal transcriptionally active domain, amino acids 1-482) (UniProt Q12772)
T1 sequence: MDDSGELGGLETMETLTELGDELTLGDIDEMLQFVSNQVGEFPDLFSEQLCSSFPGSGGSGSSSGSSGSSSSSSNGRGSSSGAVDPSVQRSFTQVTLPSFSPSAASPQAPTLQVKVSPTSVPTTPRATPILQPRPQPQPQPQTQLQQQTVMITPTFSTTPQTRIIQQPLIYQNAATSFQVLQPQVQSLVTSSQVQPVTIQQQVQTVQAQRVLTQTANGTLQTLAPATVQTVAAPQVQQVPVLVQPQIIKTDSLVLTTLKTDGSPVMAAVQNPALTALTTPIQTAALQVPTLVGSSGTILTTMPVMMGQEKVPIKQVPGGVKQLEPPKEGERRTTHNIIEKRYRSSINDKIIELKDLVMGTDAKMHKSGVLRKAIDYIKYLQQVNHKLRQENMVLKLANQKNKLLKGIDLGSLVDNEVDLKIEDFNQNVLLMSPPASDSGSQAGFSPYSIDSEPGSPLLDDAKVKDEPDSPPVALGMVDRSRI
Assay: co-IP; lysate (Pierce IP Lysis Buffer) of transfected cells incubated with anti-DYKDDDDK (FLAG) magnetic agarose beads at 4°C overnight, washed 3x with cold PBS, eluted with 0.1 M glycine pH 2.8; immunoblot for endogenous BRD2 or BRD4; cells with or without U18 treatment

Protein sequences, listed by entry. Tags and fused reporters are not part of them.
UniProt P25440: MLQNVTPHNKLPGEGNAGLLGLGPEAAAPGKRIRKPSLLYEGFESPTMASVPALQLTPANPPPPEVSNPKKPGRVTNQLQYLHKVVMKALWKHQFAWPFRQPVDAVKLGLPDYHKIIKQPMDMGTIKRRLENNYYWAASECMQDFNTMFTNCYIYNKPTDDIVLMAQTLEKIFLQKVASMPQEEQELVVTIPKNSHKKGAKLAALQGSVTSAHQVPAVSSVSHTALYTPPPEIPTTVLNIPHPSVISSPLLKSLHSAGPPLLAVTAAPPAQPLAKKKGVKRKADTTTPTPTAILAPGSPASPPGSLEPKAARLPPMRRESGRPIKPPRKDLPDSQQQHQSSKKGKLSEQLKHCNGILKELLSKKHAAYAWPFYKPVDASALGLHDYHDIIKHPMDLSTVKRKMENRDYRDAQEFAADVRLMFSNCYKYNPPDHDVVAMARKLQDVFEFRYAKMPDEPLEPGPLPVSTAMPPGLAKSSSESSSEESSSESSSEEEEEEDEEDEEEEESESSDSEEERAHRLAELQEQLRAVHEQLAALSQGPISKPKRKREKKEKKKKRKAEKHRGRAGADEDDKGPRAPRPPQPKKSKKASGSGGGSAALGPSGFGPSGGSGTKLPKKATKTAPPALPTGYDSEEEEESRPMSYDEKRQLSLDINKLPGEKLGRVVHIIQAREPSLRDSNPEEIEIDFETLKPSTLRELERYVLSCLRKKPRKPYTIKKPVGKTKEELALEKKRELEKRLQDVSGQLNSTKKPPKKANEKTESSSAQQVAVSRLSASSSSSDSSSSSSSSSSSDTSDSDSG

BRD2 (endogenous) (from UniProt P25440 1-801)
binding: binds
